In assay [1] the target is GST-PRMT6 (UniProt Q96LA8). The assay is described as follows: pull-down; GST-PRMT6 on glutathione beads incubated with 10 uL in vitro translated LEF1 in 250 uL lysis buffer (50 mM Tris pH 7.4, 100 mM NaCl, 10% glycerol, 0.1% Triton X-100, 1 mM DTT, 1 mM EDTA), 3 h, 4 °C; Western blot with anti-LEF1; only the target purified. In general terms: A western blot detects proteins with antibodies after separation by electrophoresis.

Amino acid sequences for entries named in this document (tags omitted).
UniProt Q96LA8: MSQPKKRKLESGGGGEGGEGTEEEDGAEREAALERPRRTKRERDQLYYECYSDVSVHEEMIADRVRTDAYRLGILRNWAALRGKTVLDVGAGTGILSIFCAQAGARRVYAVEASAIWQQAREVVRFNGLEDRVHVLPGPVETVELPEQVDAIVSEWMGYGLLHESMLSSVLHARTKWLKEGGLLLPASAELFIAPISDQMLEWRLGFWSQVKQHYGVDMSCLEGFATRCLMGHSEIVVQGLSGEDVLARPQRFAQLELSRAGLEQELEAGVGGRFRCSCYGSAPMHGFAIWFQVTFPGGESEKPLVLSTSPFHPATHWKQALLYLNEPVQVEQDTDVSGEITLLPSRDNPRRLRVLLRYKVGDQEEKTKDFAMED
UniProt Q01196: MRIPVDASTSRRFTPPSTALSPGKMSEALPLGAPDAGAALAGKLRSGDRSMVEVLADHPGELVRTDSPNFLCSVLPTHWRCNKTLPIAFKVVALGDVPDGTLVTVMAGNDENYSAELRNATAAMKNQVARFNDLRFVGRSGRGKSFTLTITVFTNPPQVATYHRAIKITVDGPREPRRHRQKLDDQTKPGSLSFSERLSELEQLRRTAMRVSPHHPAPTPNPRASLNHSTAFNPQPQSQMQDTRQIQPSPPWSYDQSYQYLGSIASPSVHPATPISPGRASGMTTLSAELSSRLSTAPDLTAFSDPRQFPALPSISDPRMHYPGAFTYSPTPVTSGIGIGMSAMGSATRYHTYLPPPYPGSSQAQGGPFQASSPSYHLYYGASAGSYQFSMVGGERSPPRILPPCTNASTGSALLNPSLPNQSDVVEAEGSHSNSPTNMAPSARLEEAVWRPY
UniProt Q99873: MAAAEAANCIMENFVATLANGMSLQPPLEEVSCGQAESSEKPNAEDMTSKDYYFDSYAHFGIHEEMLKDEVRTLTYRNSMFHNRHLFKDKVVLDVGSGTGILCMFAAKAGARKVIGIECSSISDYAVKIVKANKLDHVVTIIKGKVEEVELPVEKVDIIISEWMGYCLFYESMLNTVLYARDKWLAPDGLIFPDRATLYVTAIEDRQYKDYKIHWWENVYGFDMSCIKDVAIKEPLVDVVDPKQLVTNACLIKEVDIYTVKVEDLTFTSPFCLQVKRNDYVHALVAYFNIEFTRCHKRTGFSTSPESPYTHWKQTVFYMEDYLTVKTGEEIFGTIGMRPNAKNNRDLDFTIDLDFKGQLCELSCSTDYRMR

Assay [2] has as its target avi-PRMT6, biotin tagged, in HEK293 cells (UniProt Q96LA8). The assay is described as follows: pull-down; co-streptavidin-precipitation (CoSP): biotin tagged bait co-transfected with the prey into HEK293 cells, pulled out of lysate (50 mM Tris pH 7.4, 50 mM NaCl, 1% Triton X-100) with streptavidin beads; Western blot.
The target in assay [3] is GST-PRMT6 (UniProt Q96LA8). The assay is described as follows: pull-down; GST-PRMT6 on glutathione beads incubated with 500 ug lysate of HEK293T cells over expressing LEF1; Western blot with anti-LEF1; only the target purified.
Assay [4] deals with Biotinylated RUNX1 (bait) in HEK293 cells (UniProt Q01196). Kind of assay: pull-down; co-streptavidin-precipitation (CoSP): biotin tagged bait co-transfected with the prey into HEK293 cells, pulled out of lysate (50 mM Tris pH 7.4, 50 mM NaCl, 1% Triton X-100) with streptavidin beads; Western blot.

For 4 substances, binding results are on record in PMC8129428.

These are yes or no findings as the source states them, for the method shown. Binding seen in cells or lysates may run through a third protein. Some binding calls cover weakened binding; strength is not graded here.

Turning to “LEF1, in vitro translated (from UniProt Q9UJU2-1 1-399)”, the binding result in assay [1] is “binds”.

On to “PRMT1 expressed in HEK293 cells, detected with an anti-HA antibody (from UniProt Q99873 1-371) (enzyme)”, for which the binding entry in assay [2] is “binds”.

Consider “RUNX1 expressed in HEK293 cells (prey) (from UniProt Q01196 1-453)”, for which, in assay [2], the binding result was “binds”.

As to “LEF1 expressed in HEK293 cells (from UniProt Q9UJU2-1 1-399)”, the binding entry in assay [3], in assay [4] and in assay [2] was “binds” throughout.
